Five compounds from PubChem BioAssay AID720554 (ICCB-Longwood Screening Facility, Harvard Medical School, 2013) can be followed below.

The other results are listed elsewhere or left out.

The nature of the experiment: BmaI1 acyl-homoserine lactone synthase inhibition – biochemical, fluorescence intensity, with counterscreen (AID 720554). As to conditions: BmaI1 enzyme assay, measured here: counterscreen fluorescence % control, concentration not given here. A general note: The purpose of a counterscreen is to sort out artefacts and off-target activity.
In the case of `CCSP(=O)(c1ccccc1)c1ccccc1`, the inhibition is 11%. With `CP(=O)(N1CCOCC1)N1CCOCC1`, the inhibition came out at 12.5%. `CCN1C(=O)N(c2ccccc2)P(=S)(OC)c2cc3c(cc21)OCCO3` (stereo not given): the inhibition was -1%. Take `CCc1ccc(OP(C)(=O)Nc2cccnc2)cc1` (stereo not given): the inhibition stood at 7%. With `O=P1(Nc2nncs2)C=C(c2ccccc2)SC(c2ccccc2)=C1`, the inhibition turned out to be 16.5%.

What is called inhibition is the drop in the measured response relative to a control, in per cent.
